Results: PubChem BioAssay AID504467 (National Center for Advancing Translational Sciences (NCATS), 2011)
In all, about 330,000 compounds went through this assay and about 7,700 (2.3%) were called active. The shares of active, inactive and inconclusive entries below differ from those in the screen. Calls follow the shape of the dose curve; as a rule, active = well fitted inhibition curve with a large enough effect; inconclusive = small, poorly fitted or top-dose-only effect, or effect the other way; inactive = flat fitted curve, though single readings scatter. Potencies of inconclusive entries are doubtful fits and often do not repeat.

Test: qHTS screen for small molecules that inhibit ELG1-dependent DNA repair in human embryonic kidney (HEK293T) cells expressing luciferase-tagged ELG1; also: nearly all actives have a fitted effect of over 55% in size
Conditions: HEK293T ELG1-luciferase reporter, luminescence, 16 h, DNA damage induced by 5-fluorouridine; activity change, negative = inhibition: at 46.1 µM (top of the series)
Procedure, shortened: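 HEK293T cells expressing luciferase-tagged ELG1 (2,000/well) received 5-Fluorouridine plus compound or DMSO for 16 hr at 37 °C. Luciferase was read by ONE-Glo luminescence after 30 min at room temperature.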
% is scaled to controls: 0 for no effect and ±100 for the full control effect; potency is read from the fitted curve at half-maximal effect.

Row | Compound | Potency | activity change, negative = inhibition
1 | CCCNC(=O)COC(=O)c1cc2c(=O)n3ccccc3nc2s1 | inconclusive: 13 µM [activator, partial curve, poor fit] | –
2 | COc1ccc([N+](=O)[O-])cc1NC(=O)C(C)Sc1nc(C)c(C)c(C)n1 (stereo not drawn) | inconclusive: 29.1 µM [inhibitor, single point] | –
3 | NC(=O)c1cc([N+](=O)[O-])ccc1NCc1ccccn1 | inconclusive: 8.91 µM [activator, partial curve, poor fit] | –
4 | CCC(=O)NC(=S)Nc1ccc(NC(=O)c2ccc(Br)o2)cc1 | inconclusive: 23.1 µM [inhibitor, single point] | –
5 | Cc1ccc(C(=O)OCC(=O)N2CCCCCC2)cc1S(=O)(=O)N1CCOCC1 | – | inactive: 6.02%
6 | CC(NC(=O)c1ccco1)C(=O)N1CCN(S(=O)(=O)c2ccccc2C#N)CC1 (stereo not drawn) | – | inactive: 15.1%
7 | Oc1ccccc1C1=NN(c2ccccc2)C(c2ccc(F)cc2)C1 (stereo not drawn) | – | inactive: -13.3%
8 | O=[N+]([O-])c1ccc(Cl)c(/C=N/N2CCN(Cc3ccccc3)CC2)c1 | – | inactive: -11.8%
9 | Cc1ccnc(NC(=O)C2CCCN(S(=O)(=O)c3ccc4[nH]c(=O)ccc4c3)C2)c1 (stereo not drawn) | – | inactive: 0.636%
10 | Cc1ccc2c(c1)C(c1ccc(F)cc1)N(C(=O)C1CC1)CC(=O)N2 (stereo not drawn) | – | inactive: 3.36%
11 | CCN(CC)S(=O)(=O)c1cccc(NC(=O)/C=C/c2cccc([N+](=O)[O-])c2)c1 | inconclusive: 14.6 µM [inhibitor, partial curve] | –
12 | CCCC(=O)c1ccc(N2CCCC2)c(F)c1 | inconclusive: 18.4 µM [activator, partial curve] | –
13 | CC(=O)Nc1ccc(S(=O)(=O)N2CCN(S(=O)(=O)N3CCOCC3)CC2)cc1 | – | inactive: -11.3%
14 | C/C(Cl)=C/CSc1nc2c(c(=O)[nH]c(=O)n2C)n1C(C)C | – | inactive: 0%
15 | Cc1ccnc(SCC(=O)c2ccc(Br)s2)n1 | inconclusive: 16.4 µM [activator, partial curve] | –
16 | C=CCNC(=O)Cn1nnc(-c2ccc(-c3ccc(OC)cc3)cc2)n1 | inconclusive: 6.51 µM [activator, partial curve] | –
17 | CS(=O)(=O)Nc1ccc(C2=NN(C(=O)c3ccco3)C(c3ccco3)C2)cc1 (stereo not drawn) | inconclusive: 23.1 µM [inhibitor, partial curve, poor fit] | –
18 | CCOC(=O)C(C(=O)Nc1ccc(C)cc1)C1CCCCC1 (stereo not drawn) | – | inactive: -23.8%
19 | COc1ccc(C2=NOC(Cn3nc(C(=O)NCc4ccccc4OC)cc3-c3ccccc3)C2)cc1 (stereo not drawn) | inconclusive: 31.6 µM [inhibitor, single point] | –
20 | CCc1ccc(/C=N/NC(=O)c2nnn(-c3nonc3N)c2CN2CCc3ccccc32)cc1 | inconclusive: 5.8 µM [inhibitor, partial curve, poor fit] | –
21 | COc1ccc(C(=O)COC(=O)c2ccc3c(c2)OCCO3)c(OC)c1 | inconclusive: 16.4 µM [activator, partial curve] | –
22 | Cc1cnc(C(=O)OCC(=O)c2ccc(C3CCCCC3)cc2)cn1 | inconclusive: 8.2 µM [activator, partial curve, poor fit] | –
23 | CCCCNC(=O)C(CC)(ONc1ccccc1C(F)(F)F)c1ccccc1OC (stereo not drawn) | – | inactive: 1.83%
24 | Cc1ccc(NC(=O)Nc2cc(S(C)(=O)=O)ccc2Cl)cc1 | inconclusive: 13 µM [activator, partial curve] | –
25 | Cc1cccnc1NC(=O)c1cc2ccccc2oc1=O | inconclusive: 3.66 µM [activator, full curve] | –

Given as a markdown table: part of the list above

| Row | Compound | Potency | activity change, negative = inhibition |
| --- | --- | --- | --- |
| 8 | O=[N+]([O-])c1ccc(Cl)c(/C=N/N2CCN(Cc3ccccc3)CC2)c1 | – | inactive: -11.8% |
| 9 | Cc1ccnc(NC(=O)C2CCCN(S(=O)(=O)c3ccc4[nH]c(=O)ccc4c3)C2)c1 (stereo not drawn) | – | inactive: 0.636% |
| 10 | Cc1ccc2c(c1)C(c1ccc(F)cc1)N(C(=O)C1CC1)CC(=O)N2 (stereo not drawn) | – | inactive: 3.36% |
| 11 | CCN(CC)S(=O)(=O)c1cccc(NC(=O)/C=C/c2cccc([N+](=O)[O-])c2)c1 | inconclusive: 14.6 µM [inhibitor, partial curve] | – |
| 12 | CCCC(=O)c1ccc(N2CCCC2)c(F)c1 | inconclusive: 18.4 µM [activator, partial curve] | – |
| 13 | CC(=O)Nc1ccc(S(=O)(=O)N2CCN(S(=O)(=O)N3CCOCC3)CC2)cc1 | – | inactive: -11.3% |
| 14 | C/C(Cl)=C/CSc1nc2c(c(=O)[nH]c(=O)n2C)n1C(C)C | – | inactive: 0% |

Following part.

Row | Compound | Potency | activity change, negative = inhibition
26 | Cc1n[nH]c(C)c1S(=O)(=O)N(CC(=O)NC1CCCC1)c1ccc(C(C)C)cc1 | inconclusive: 25.9 µM [inhibitor, partial curve, poor fit] | –
27 | CCN(CC)S(=O)(=O)c1ccc(N2CCOCC2)c(NC(=O)C23CC4CC(CC(Cl)(C4)C2)C3)c1 | active: 9.2 µM | –
28 | O=C(Nc1cc2c(cc1Cl)OCCO2)c1ccco1 | inconclusive: 18.4 µM [activator, partial curve] | –
29 | O=C(COC(=O)c1c2c(nc3ccccc13)/C(=C\c1cccs1)CCC2)Nc1ccccc1Cl | active: 16.4 µM | –
30 | CCN1CCN(C(c2cccs2)C(C)NC(=O)c2ccccc2OC)CC1 (stereo not drawn) | – | inactive: 13.4%
31 | Cc1cccn2c(=O)nc(SCC(=O)NCCc3ccccc3)nc12 | – | inactive: -0.0489%
32 | O=c1[nH]c(CSc2nnc(COc3ccccc3)n2-c2ccccc2)nc2ccccc12 | inconclusive: 18.4 µM [inhibitor, partial curve, poor fit] | –
33 | Cc1oc(S(=O)(=O)N2CCCCC2)cc1NC(=O)Nc1ccc(Cl)cc1 | inconclusive: 20.6 µM [inhibitor, single point] | –
34 | COc1ccc(C(=O)O)cc1S(=O)(=O)N(CCc1ccccc1)Cc1ccccc1 | inconclusive: 1.16 µM [activator, partial curve, poor fit] | –
35 | COc1cccc(CNC(=O)Cn2ccc3cc(S(=O)(=O)N4CCC(C)CC4)ccc32)c1 | – | inactive: -10.3%
36 | O=S(=O)(NC1c2cccc3cccc(c23)C1Sc1ncccn1)c1ccccc1 (stereo not drawn) | – | inactive: -15.3%
37 | COc1cc(C(=O)OCC(=O)c2cc(C)n(CC3CCCO3)c2C)cc(OC)c1C (stereo not drawn) | – | inactive: -0.247%
38 | COCCNc1ncnc2c1cnn2Cc1ccccc1Cl | – | inactive: -23.8%
39 | O=C(CNC1=NCCC1)c1ccc(Cl)cc1 | – | inactive: 13.9%
40 | CCC(=O)Nc1cc2c3c(c1)CCC(=O)N3CCC2 | – | inactive: 16.1%
41 | Nc1nc(SCc2ccccc2Cl)nc2nc3c(cc12)CCCC3 | – | inactive: -3.46%
42 | O=C(N/N=C/c1ccccc1[N+](=O)[O-])c1ccc(COc2ccccc2-c2ccccc2)cc1 | inconclusive: 9.2 µM [inhibitor, partial curve, poor fit] | –
43 | O=C(N/N=C\C=C\c1ccc2c(c1)OCO2)C1COc2ccccc2O1 (stereo not drawn) | – | inactive: -7.92%
44 | O=S(=O)(c1ccc2ccccc2c1)N1CCN(C(=S)Nc2ccc(F)c(Cl)c2)CC1 | inconclusive: 29.1 µM [inhibitor, partial curve, poor fit] | –
45 | O=C(CSc1nc2ccccc2c(=O)[nH]1)c1ccccc1 | inconclusive: 9.2 µM [activator, partial curve] | –
46 | COCC1CCCN(C(=O)c2cc(COc3ccc4ncccc4c3)on2)C1 (stereo not drawn) | – | inactive: 0.829%
47 | COc1ccc2oc(C(=O)OC(C)C(=O)N3CCC(C)CC3)c(C)c2c1 (stereo not drawn) | inconclusive: 0.501 µM [activator, partial curve, poor fit] | –
48 | CC(Sc1nc(-c2ccccc2)nc2c1COC(C)(C)C2)C(=O)N1CCOCC1 (stereo not drawn) | inconclusive: 20.6 µM [inhibitor, single point] | –
49 | O=C(O)[C@H](Cc1ccccc1)NC(=O)N1CCN(c2ccccc2)CC1 | – | inactive: -1.48%
50 | Cc1ccc2oc(=O)c3cc(C(=O)NCCN4CCN(C)CC4)sc3c2c1 | – | inactive: -16.5%

Row | Compound | Potency | activity change, negative = inhibition
51 | COc1ccc(Nc2nc(N)nc(CSC(=S)N3CCCCC3)n2)cc1 | inconclusive: 18.3 µM [activator, single point] | –
52 | CC(=O)c1ccc(N2CCN(C(=O)c3cc(-c4cccnc4)nc4ccc(Br)cc34)CC2)cc1 | active: 16.4 µM | –
53 | CCOc1cc(CN2CCN(CCOCCO)CC2)ccc1OC | inconclusive: 32.6 µM [activator, partial curve, poor fit] | –
54 | Cc1cc(-n2cnnn2)ccc1C(C)C | inconclusive: 18.3 µM [activator, partial curve, poor fit] | –
55 | Cc1ccc(S(=O)(=O)N2CCC(C(=O)NC3CC3)CC2)cc1 | – | inactive: 25.4%
56 | NC(=O)C1CCN(c2nc(-c3ccccc3C(F)(F)F)cs2)CC1 | inconclusive: 7.3 µM [activator, partial curve] | –
57 | O=C(O)c1n[nH]c2c1CCCCC2 | inconclusive: 29.1 µM [activator, partial curve, poor fit] | –
58 | COc1ccc(NC(=O)CN2C(=O)C(c3ccccc3)=NC23CCCCCC3)cc1OC | active: 23.1 µM | –
59 | CCn1nc(C(=O)NNS(=O)(=O)c2ccc(C)cc2)c2ccccc2c1=O | – | inactive: 4.95%
60 | CCOC(=O)c1ccc(NC(=O)CSc2nc3ncccc3[nH]2)cc1 | – | inactive: 29.2%
61 | CCC(C)n1c(SCC(=O)Nc2ccccc2C(F)(F)F)nc2ccsc2c1=O (stereo not drawn) | inconclusive: 25.9 µM [inhibitor, single point] | –
62 | O=C1/C(=C/c2cccs2)SC(=S)N1CC(=O)N1CCCCC1CCO (stereo not drawn) | inconclusive: 20.6 µM [activator, partial curve, poor fit] | –
63 | COc1ccc(CC2(CO)CCN(Cc3cc4ccccc4o3)CC2)cc1 | – | inactive: -16.8%
64 | Cc1ccc(S(=O)(=O)N(C)C)cc1NC(=S)NC1CCCC(C)C1C (stereo not drawn) | – | inactive: -23.2%
65 | CCOc1ccc(CCNC(=O)COC(=O)c2ccc(C)s2)cc1OCC | – | inactive: 0%
66 | COc1ccc(C(C)=O)cc1COc1ccc([N+](=O)[O-])c(C)c1 | inconclusive: 20.6 µM [inhibitor, single point] | –
67 | COc1ccc(NC(C)=O)cc1NC(=O)C1CCCN1C(=O)c1cccs1 (stereo not drawn) | – | inactive: 11.8%
68 | CN(C(=O)c1cnccn1)c1c(N)n(Cc2ccccc2)c(=O)[nH]c1=O | – | inactive: 14.8%
69 | CCn1nnc(NC(=O)c2ccc([N+](=O)[O-])o2)n1 | inconclusive: 20.6 µM [inhibitor, partial curve, poor fit] | –
70 | COc1cc(C(C)=O)ccc1OCC(O)CNCC(O)c1ccccc1 (stereo not drawn) | inconclusive: 0.092 µM [inhibitor, full curve, poor fit] | –
71 | O=C(COc1ccc(/C=N/NC(=O)c2ccc(O)cc2)cc1)Nc1cccc([N+](=O)[O-])c1 | inconclusive: 14.6 µM [activator, partial curve] | –
72 | Cc1cc(-n2c(SCC(=O)Nc3ccc(Br)cc3)nc3n[nH]c(C)c3c2=N)ccc1Cl | – | inactive: 2.15%
73 | Cc1cnc(NC(=O)CCc2ccccc2)s1 | inconclusive: 14.6 µM [activator, partial curve, poor fit] | –
